{"source": "patent US20150157714A1", "about": "“IMPLEMENTATION OF NON-PATHOGENIC BIOLUMINESCENT BACTERIA AS A SUB-MICRON LIGHT EMITTING SOURCE FOR PHOTO-DYNAMIC THERAPY IN THE LUNGS” (priority 2013, published 2015)", "origin": "cited, not measured here", "conditions": "absorption spectra wavelengths for photochemical interactions"}
{"smiles": "CCN(CC)c1ccc2cc3ccc(=[N+](CC)CC)cc-3oc2c1.[Cl-]", "note": "[Pyronin B]", "values": [{"measurement": "Spectral Absorption Ranges and Peaks", "result": "510-560 nm"}]}
